US20160289747

The chains behind the UniProt entries cited, without tags or fusion partners. Residues count along the entry.
UniProt P0A7G6, 2-353: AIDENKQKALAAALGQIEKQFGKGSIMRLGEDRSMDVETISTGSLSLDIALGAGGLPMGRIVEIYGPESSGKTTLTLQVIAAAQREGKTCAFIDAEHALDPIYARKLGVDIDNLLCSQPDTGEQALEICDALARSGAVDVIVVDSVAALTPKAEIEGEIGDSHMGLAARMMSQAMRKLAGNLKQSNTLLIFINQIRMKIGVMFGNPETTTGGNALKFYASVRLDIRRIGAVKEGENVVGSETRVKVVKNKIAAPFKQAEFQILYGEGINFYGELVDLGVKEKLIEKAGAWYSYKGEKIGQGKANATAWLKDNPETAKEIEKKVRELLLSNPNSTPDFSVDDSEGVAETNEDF

Legend:
[1] = test system: ET-SSB (Extreme Thermostable Single-Stranded DNA Binding Protein); assay: binding assay; details: purified recombinant protein, protein details: New England Biolabs, label: fluorophore and quencher
[2] = molecular target: T1, gp32 single-stranded DNA binding protein (Enterobacteria phage T4) (UniProt P03695); assay: binding assay; details: purified recombinant protein, protein details: New England Biolabs
T1 sequence (looked up, limits assumed): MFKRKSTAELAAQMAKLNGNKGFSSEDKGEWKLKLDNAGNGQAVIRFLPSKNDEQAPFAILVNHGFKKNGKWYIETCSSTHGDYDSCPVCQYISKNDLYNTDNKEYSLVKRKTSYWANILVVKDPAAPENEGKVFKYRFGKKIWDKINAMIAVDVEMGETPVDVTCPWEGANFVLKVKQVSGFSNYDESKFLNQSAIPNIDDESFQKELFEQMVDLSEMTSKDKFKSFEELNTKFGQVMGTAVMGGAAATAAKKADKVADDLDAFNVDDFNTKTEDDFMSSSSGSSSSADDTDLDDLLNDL

[3] = molecular target: UvsX recombinase (Enterobacteria phage T4) (UniProt P04529); assay: binding assay; details: purified recombinant protein, label: fluorophore and quencher
RecA (Escherichia coli) = RecA (Escherichia coli) (UniProt P0A7G6); assay: binding assay; details: PNA; no significant fluorescence increase; Mg, ATP; purified recombinant protein; protein details: New England Biolabs; label: fluorophore and quencher; synthetic backbone
[4] = molecular target: T2, RNase H2 (Thermococcus gammatolerans) (UniProt C5A5T1); assay: enzyme reaction in vitro; details: purified recombinant protein, DNA:RNA hybrid
T2 sequence (looked up, limits assumed): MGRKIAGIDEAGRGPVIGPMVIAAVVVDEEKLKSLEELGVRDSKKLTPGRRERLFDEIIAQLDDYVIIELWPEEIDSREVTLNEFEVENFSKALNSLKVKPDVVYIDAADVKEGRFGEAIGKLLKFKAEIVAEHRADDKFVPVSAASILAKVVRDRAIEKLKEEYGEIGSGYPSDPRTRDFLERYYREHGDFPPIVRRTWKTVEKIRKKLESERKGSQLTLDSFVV

ACGAAAGCCGATGACTAATGC [DNA 21]: binds ([1]; fluorescence dequenching, 50 ug/ml ET-SSB, Mg, single-stranded DNA).
“ACGAAAGCCGATGACTAAUGC [DNA5+2-FLUORO RNA16]”: binds more weakly ([2]; 16 2'-F RNA bases, fluorescence fold increase below DNA 21, label: fluorophore and quencher, variant of DNA 21); binds more weakly ([3]; 16 2'-F RNA bases, fluorescence fold increase below DNA 21, variant of DNA 21).
“ACGAAAGCCGATGACTAAUGC [DNA5+2-O-METHYL RNA16]”: binds more weakly ([2]; 16 2'-OMe RNA bases, fluorescence fold increase below DNA 21, label: fluorophore and quencher, variant of DNA 21); binds more weakly ([3]; 16 2'-OMe RNA bases, fluorescence fold increase below DNA 21, variant of DNA 21).
ACGAAAGCCGATGACTAAUGC [DNA5+RNA16]: binds more weakly ([2]; 16 RNA bases, fluorescence fold increase below DNA 21, label: fluorophore and quencher, variant of DNA 21); binds more weakly ([3]; 16 RNA bases, fluorescence fold increase below DNA 21, variant of DNA 21).
“ACGAAAGCCGATGACTAAUGC [DNA10+2-FLUORO RNA11]”: binds more weakly ([2]; 11 2'-F RNA bases, fluorescence fold increase below DNA 21, label: fluorophore and quencher, variant of DNA 21); binds more weakly ([3]; 11 2'-F RNA bases, fluorescence fold increase below DNA 21, variant of DNA 21).
“ACGAAAGCCGATGACTAAUGC [DNA10+2-O-METHYL RNA11]”: binds more weakly ([2]; 11 2'-OMe RNA bases, fluorescence fold increase below DNA 21, label: fluorophore and quencher, variant of DNA 21); binds more weakly ([3]; 11 2'-OMe RNA bases, fluorescence fold increase below DNA 21, variant of DNA 21).
“ACGAAAGCCGATGACTAAUGC [DNA16+2-FLUORO RNA5]”: binds more weakly ([2]; 5 2'-F RNA bases, fluorescence fold increase below DNA 21, label: fluorophore and quencher, variant of DNA 21); binds more weakly ([3]; 5 2'-F RNA bases, fluorescence fold increase below DNA 21, variant of DNA 21).
“ACGAAAGCCGATGACTAAUGC [DNA16+2-O-METHYL RNA5]”: binds more weakly ([2]; 5 2'-OMe RNA bases, fluorescence fold increase below DNA 21, label: fluorophore and …, variant of DNA 21); binds more weakly ([3]; 5 2'-OMe RNA bases, fluorescence fold increase below DNA 21, variant of DNA 21).
ACGAAAGCCGATGACTAAUGC [DNA16+RNA5]: binds more weakly ([2]; 5 RNA bases, fluorescence fold increase below DNA 21, label: fluorophore and quencher, variant of DNA 21); binds more weakly ([3]; 5 RNA bases, fluorescence fold increase below DNA 21, variant of DNA 21).
ACGAAAGCCGATGACTAAUGC [DNA17+RNA4]: binds more weakly ([2]; 4 RNA bases, reduced interference with about 20% RNA, label: fluorophore and quencher, variant of DNA 21); binds more weakly ([3]; 4 RNA bases, reduced interference with about 20% RNA, variant of DNA 21).
“ACGAAAGCCGAUGACUAAUGC [2'-O-methyl RNA 21]”: binds more weakly ([1]; 2'-OMe, more resistant than DNA).
“ACGAAAGCCGAUGACUAAUGC [2'-fluoro RNA 21]”: binds more weakly ([1]; 2'-F, more resistant than DNA).
ACGAAAGCCGAUGACUAAUGC [RNA 21]: binds more weakly ([1]; more resistant than DNA).
AGTTGATGTGTACT [PNA 14]: no binding (RecA (Escherichia coli)); binds more weakly ([1]; PNA, more resistant than DNA, synthetic backbone); no binding ([2]; PNA, little or no fluorescence increase, label: fluorophore and quencher, synthetic …). AGTTGATGTGTACT [PNA 14]: no binding ([3]; PNA, probe remained quenched, Mg, ATP, 40 C, synthetic backbone).
AGUUGAUGUGUA [LNA 12]: binds more weakly ([1]; LNA, more resistant than DNA, synthetic backbone).
In the case of “AGUUGAUGUGUACUCA [SB-2'-O-methyl RNA 16 probe with complementary DNA]”, the “activity on this sequence” value ([4]; 2'-OMe, not cleaved, label: fluorophore and quencher) was “not active”.
For “AGUUGAUGUGUACUGA / GATCTCAGTACACATCAACT [SB-2FLUORO probe with complementary DNA]”, the “activity on this sequence” value ([4]; 2'-F in RNA strand, 10 ug/ml RNase H2, signal increase from cleavage, SIBA buffer, Mg, label: ROX and BHQ2) was “active”.
TACGAAAGCCGATGACTAAUGC [DNA10+RNA11]: binds more weakly ([2]; 11 RNA bases, fluorescence fold increase below DNA 21, label: fluorophore and quencher, variant of DNA 21); binds more weakly ([3]; 11 RNA bases, fluorescence fold increase below DNA 21, variant of DNA 21).

For some of these results: A negative result means that nothing was seen under these conditions. For some of these results: Tags and fusion partners may be left off the protein sequences shown. For some of these results: For at least one entry, the source does not settle the construct or the ends of the probe. For some of these results: The comparison behind a weaker result is the experiment's own reference, which may not be listed here.
